Reference: article PMC6646333 (Nature Communications, 2019)

Experiment: general procedure: hybrid (solid and solution phase) peptide synthesis; DEPBT/DIEA; HATU/HOAt/DIEA
Conditions: for step yield: coupling step

| Substance | step yield [%] | step yield (from compound 16) [%] | isolated yield (whole synthesis, overall from compound 9, scale of the general procedure gram scale of the general procedure) [%] |
| --- | --- | --- | --- |
| linear pentapeptide 15 | 63 | – | – |
| teixobactin | 31 | 31 | 8 |
